Data from article PMC12506094.
These are yes or no findings as the source states them, for the method shown. In cells and extracts the contact can be indirect. For part of these data: Binding calls can cover weak binding; strength is not graded here. Sequences can lack the tags named with a protein.

B1: HA-tagged RNF125 (protein, UniProt Q96EQ8 1-232)
chain: MGSVLSTDSGKSAPASATARALERRRDPELPVTSFDCAVCLEVLHQPVRTRCGHVFCRSCIATSLKNNKWTCPYCRAYLPSEGVPATDVAKRMKSEYKNCAECDTLVCLSEMRAHIRTCQKYIDKYGPLQELEETAARCVCPFCQRELYEDSLLDHCITHHRSERRPVFCPLCRLIPDENPSSFSGSLIRHLQVSHTLFYDDFIDFNIIEEALIRRVLDRSLLEYVNHSNTT

How the values were obtained:
Assay in all cases: co-IP
[1] = target: T1, HA-tagged RNF125 (UniProt Q96EQ8)
T1 sequence: B1 chain

[2] = target: T2, Myc-tagged IRF9 (UniProt Q00978)
T2 sequence: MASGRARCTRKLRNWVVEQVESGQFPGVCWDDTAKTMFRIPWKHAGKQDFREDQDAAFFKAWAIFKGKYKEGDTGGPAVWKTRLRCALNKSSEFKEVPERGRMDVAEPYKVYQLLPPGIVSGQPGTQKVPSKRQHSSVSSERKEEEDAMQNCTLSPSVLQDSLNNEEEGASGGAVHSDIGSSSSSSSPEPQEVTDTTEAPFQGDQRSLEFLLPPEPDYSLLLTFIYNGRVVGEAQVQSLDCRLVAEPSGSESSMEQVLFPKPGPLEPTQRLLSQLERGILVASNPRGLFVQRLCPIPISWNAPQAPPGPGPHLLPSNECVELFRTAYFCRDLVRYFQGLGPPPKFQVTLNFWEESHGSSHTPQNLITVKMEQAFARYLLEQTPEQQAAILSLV

[3] = target: Flag-tagged Senecavirus A (SVA) 3D protein (Senecavirus A)

| Molecule | binding [1] | binding [2] | binding [3] |
| --- | --- | --- | --- |
| Flag-tagged Senecavirus A (SVA) 3D protein | binds | no binding |  |
| B1 |  |  | binds |
